PubChem BioAssay AID1224830, NIAID – 2016
In all, the deposit lists about 18,000 reagents; this is an unselected part. In the full data, about 2,900 (16%) got an active call. 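Calls are made per well; low scores hint the gene aids the LPS response, high scores that it dampens it.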 A number with no mark means an inactive call. Repeated entries: four replicate wells of each siRNA pool.

Purpose: 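Host factors that control LPS-induced TNF expression in human macrophages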 (primary screen)
Cell system: human THP-1 monocytic leukaemia cells, TNF dual-luciferase reporter clone, PMA-differentiated to macrophage-like cells
Knock-down reagent: siRNA pool against human genes, 50 nM
Time to read-out: LPS for 4 h, given about 3 days after siRNA transfection
Challenge: bacterial LPS (TLR4 ligand), 10 ng/ml
Measured: 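Ratio of firefly to renilla light, scaled to the plate median and expressed as a robust z-score per replicate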
Direction: TNF reporter robust z-score: higher = stronger TNF reporter response to LPS
Active means: 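a well is active when its z-score exceeds 2.8 or falls below -1.5; control wells carry no call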

| TNF reporter robust z-score | gene symbol |
| --- | --- |
| 0.22 | TMC2 |
| 0.46 | TMC2 |
| 0.47 | TMC2 |
| 0.59 | TMC2 |
| 2.23 | DDX39B |
| 0.2 | DDX39B |
| -0.45 | DDX39B |
| 0.8 | DDX39B |
| -0.19 | PEX16 |
| -0.7 | PEX16 |
| -0.43 | PEX16 |
| -0.54 | PEX16 |
| -0.48 | NEUROG2 |
| 0.06 | NEUROG2 |
| -0.98 | NEUROG2 |
| -0.36 | NEUROG2 |

Next part; the last 5 above are carried over.
| TNF reporter robust z-score | gene symbol |
| --- | --- |
| -0.54 | PEX16 |
| -0.48 | NEUROG2 |
| 0.06 | NEUROG2 |
| -0.98 | NEUROG2 |
| -0.36 | NEUROG2 |
| -0.31 | IL13 |
| 0.24 | IL13 |
| 0.11 | IL13 |
| 0.14 | IL13 |
| 0.73 | SNRPB2 |
| 0.11 | SNRPB2 |
| 0.47 | SNRPB2 |
| 0.98 | SNRPB2 |
| -1.12 | AP1M1 |
| 0.02 | AP1M1 |
| -0.24 | AP1M1 |
| 0.11 | AP1M1 |
| -0.13 | SGO1 |
| 1.78 | SGO1 |
| -0.33 | SGO1 |
| 0.33 | SGO1 |
| -1.52 (active) | CTNND1 |
| -1.47 | CTNND1 |
| -1.48 | CTNND1 |
| -0.88 | CTNND1 |
| 0.97 | RBP5 |
| 0.2 | RBP5 |
| -1.05 | RBP5 |
| -0.7 | RBP5 |
| 0.22 | PAM16 |
| 0.82 | PAM16 |
| -0.17 | PAM16 |
| 0.87 | PAM16 |
| 1.03 | HDHD5 |
| 1.51 | HDHD5 |
| 1.42 | HDHD5 |
| 2.14 | HDHD5 |
